Measurements as given in patent US8158152B2, “Lyophilization process and products obtained thereby” (SciDose LLC, priority 2005, dated 2012).
For at least one compound, name, drawing or mass did not settle the structure.

Assay: Partitioning of reconstituted itraconazole lyophilizate in 10% Intralipid fat emulsion, phases separated by ultracentrifuge
Format: physicochemical
Conditions: lyophilizate reconstituted to 100 mg/ml in propylene glycol, diluted with 25 ml or more of 10% Intralipid fat emulsion

Structure (SMILES): CCC(C)n1ncn(-c2ccc(N3CCN(c4ccc(OCC5COC(Cn6cncn6)(c6ccc(Cl)cc6Cl)O5)cc4)CC3)cc2)c1=O (stereo not shown) [itraconazole]
- partition between fat layer and aqueous phase of emulsion: all the itraconazole is partitioned into the fat layer
